# Among all 300,000 compounds or so, about 5,400 (1.8%) were called active. Inconclusive means that the source gave no clear call. Such entries were picked first, then a sample of the others. Calls come from the whole dose curve; tested in HEK293 cells. Where the call is inconclusive, the potency comes from a doubtful curve fit.
# Assay: qHTS for inhibitors of binding or entry into cells for Marburg Virus
# Details: Marburg virus pseudotyped entry inhibition, cell reporter; activity change, negative = inhibition: at 37.8 µM (top of the series) unless noted
# % is set by controls: 0 for no effect and ±100 for the full control effect; potency is the fitted concentration of half-maximal effect.
Structure (SMILES),Potency,"activity change, negative = inhibition"
CC1Cc2c([nH]c3ccccc23)C2c3ccccc3CN12 (stereo not given),"inconclusive: 8.91 µM [inhibitor, partial curve, poor fit]",–
Cc1cccn2c(CN(C)CCC3CCCCO3)c(C(=O)N3CCCCC3)nc12 (stereo not given),–,inactive: -19.2% [at 46.1 µM]
Cc1nc(NCc2ccc3c(c2)OCO3)c2nnn(Cc3ccccc3)c2n1,"inconclusive: 13 µM [inhibitor, partial curve]",–
O=c1[nH]c(NC2CCN(S(=O)(=O)c3ccccc3C(F)(F)F)CC2)nc2c1CCCC2,"inconclusive: 8.91 µM [inhibitor, partial curve, poor fit]",–
CC(C)(CNC(=O)c1ccccc1NS(C)(=O)=O)N1CCCCC1,"inconclusive: 22.4 µM [activator, single point]",–
Cc1cccc(-n2c(C)cc(/C=N/O)c2C)c1,–,inactive: 1.26%
CCOC(=O)c1cccc(COC(=O)c2cccc(-c3nnc(-c4ccccc4)o3)c2)c1,"inconclusive: 5.62 µM [inhibitor, single point]",–
COc1ccc(Nc2cc(Cl)nc(N)n2)cc1,–,inactive: -29% [at 46.1 µM]
CCCc1cc(-c2[nH]ncc2-c2ccc(C(=O)OCC)o2)c(O)cc1O,"inconclusive: 16.4 µM [inhibitor, single point]",–
O=C(c1ccccn1)N1N=C2/C(=C/c3ccc(F)cc3)CCCC2C1c1ccc(F)cc1 (stereo not given),"inconclusive: 35.5 µM [inhibitor, single point]",–
Cc1ccc(NC(=O)COC(=O)/C(=C/c2cccs2)c2cccs2)cc1S(=O)(=O)N(C)C,"inconclusive: 15.8 µM [inhibitor, partial curve, poor fit]",–
COc1ccc2oc(=O)c(C(=O)N3CCN(C(=O)c4ccco4)CC3)cc2c1,–,inactive: 0.166% [at 46.1 µM]
Cc1ccc(Nc2nc(CSc3nnnn3C)cs2)cc1,–,inactive: -20.8%
Cc1ccc(C(=O)NNC(=O)c2ccco2)cc1,"inconclusive: 35.5 µM [activator, single point]",–
Cc1cc(C)c(NC(=O)c2sc3nc(C)cc(C)c3c2NC(=O)c2ccccc2)c(C)c1,–,inactive: -27% [at 46.1 µM]
CC1=C(c2ccc(C)c(C)c2)S(=O)(=O)NC1=NCc1ccccc1Cl,"inconclusive: 2.82 µM [activator, single point]",–
COc1ccc(-c2ccc3c(N)c(C(=O)Nc4ccc(C(F)(F)F)cc4)sc3n2)cc1OC,"inconclusive: 8.91 µM [inhibitor, partial curve, poor fit]",–
CCc1c(C)nc2ncnn2c1N1CCCC(C(=O)NCCc2ccc(OC)cc2)C1 (stereo not given),–,inactive: -18.9%
Cn1nc(C(=O)NNC(=O)CCc2ccccc2Cl)c2ccccc2c1=O,–,inactive: 8.41%
COc1cc(/C=N/NC(=O)CC#N)cc(Br)c1O,–,inactive: -2.6% [at 46.1 µM]
Cc1cc(F)ccc1NC(=O)C1CSC2(C)CCC(=O)N12 (stereo not given),"inconclusive: 35.5 µM [activator, single point]",–
CN(c1ccccc1)S(=O)(=O)c1ccc(C(=O)NCc2ccccc2CN2CCCC2)cc1,"inconclusive: 10 µM [inhibitor, partial curve, poor fit]",–
CC1=Nc2cc(C(=O)NCc3ccccc3Cl)ccc2Sc2c(C)ccc(C)c21,"inconclusive: 3.55 µM [inhibitor, partial curve, poor fit]",–
Cc1cc(Nc2nc3ccccc3[nH]c2=O)n(-c2ccccc2)n1,"inconclusive: 12.6 µM [inhibitor, partial curve, poor fit]",–

# Copied from the list.
# Potency, Cc1cc(F)ccc1NC(=O)C1CSC2(C)CCC(=O)N12 (stereo not given) reads inconclusive: 35.5 µM [activator, single point]
# Potency, O=c1[nH]c(NC2CCN(S(=O)(=O)c3ccccc3C(F)(F)F)CC2)nc2c1CCCC2 reads inconclusive: 8.91 µM [inhibitor, partial curve, poor fit]

# Carrying on.

Structure (SMILES),Potency,"activity change, negative = inhibition"
O=C(CN1C(=O)C(c2ccc(F)cc2)=NC12CCCCCC2)Nc1ccccc1Cl,"inconclusive: 4.47 µM [inhibitor, full curve, poor fit]",–
CCN(CC(=O)NC(C)C)C(=O)[C@@H](NC(=O)c1ccco1)C(C)C,–,inconclusive: 17.5% [activator] [at 46.1 µM]
CCCn1c(=O)n(-c2ccccc2Cl)c(=O)c2sc3ccccc3c21,–,inactive: 22.7% [at 46.1 µM]
O=C(O)CCCC(=O)Nc1ccc(OCc2nc3ccccc3s2)cc1,"inconclusive: 10 µM [activator, partial curve, poor fit]",–
O=C(NC(=S)Nc1ccccn1)c1ccco1,"inconclusive: 0.517 µM [activator, partial curve]",–
Cc1ccccc1-c1cc2c(nn1)-c1ccccc1C2=O,"inconclusive: 10 µM [inhibitor, partial curve]",–
O=c1[nH]c(SCCOc2ccccc2F)nc2ccccc12,"inconclusive: 14.1 µM [activator, partial curve, poor fit]",–
O=C(Nc1ccn(Cc2c(F)c(F)cc(F)c2F)n1)c1ccc(COc2ccc(Cl)cc2Cl)o1,"inconclusive: 0.326 µM [activator, single point]",–
CCOc1ccccc1N(C)C(=O)c1sc2ncn(CC(=O)N3CCCCC3C)c(=O)c2c1C (stereo not given),–,inactive: 24.7% [at 46.1 µM]
COc1ccc(NS(=O)(=O)c2cccc(C(=O)NCC(c3ccco3)N(C)C)c2)cc1 (stereo not given),–,inactive: 2.91%
CCC1Oc2ccccc2C(=O)N(CC(=O)c2ccc3c(c2)OCCO3)C1=O (stereo not given),"inconclusive: 3.55 µM [activator, single point]",–
O=C(Cc1cccc(Cl)c1)Nc1ccc(Br)cc1,–,inactive: 27.1% [at 46.1 µM]
CNC(=O)C[C@H]1C(=O)N(C2CCCCC2)C[C@@H]1CSC,"inconclusive: 0.007 µM [inhibitor, full curve, poor fit]",–
O=C(Nc1c(C(=O)N2CCOCC2)oc2ccccc12)c1ccccc1Cl,–,inactive: 2.7% [at 46.1 µM]
CC1(c2ccc(Cl)cc2)NC(=O)N(CC(=O)N2CCCC2)C1=O (stereo not given),–,inactive: 13.1%
CCc1ccc(C(=O)COC(=O)c2nn(C)c(=O)c3ccccc23)cc1,–,inactive: 19.4%
COC(=O)C1c2ccccc2-c2ccccc21,–,inactive: -5.62% [at 46.1 µM]
CCCC(O)(c1ccc(OC)cc1)C(CN(C)C)c1ccccc1 (stereo not given),"inconclusive: 32.6 µM [inhibitor, single point]",–
Cc1c(Br)cc(C(=O)NCc2ccco2)c(C)c1C,–,inactive: -29.5%
COc1ccc(-c2nnc(SCC(=O)NCCc3ccc(OC)c(OC)c3)nc2-c2ccc(OC)cc2)cc1,–,inactive: 9.3% [at 46.1 µM]
O=C(NCCc1ccccc1)c1ccc(-n2cnnn2)cc1,–,inactive: 1.99%
CC(=O)NS(=O)(=O)c1ccc(N=c2ssc3c2-c2cc(C)c(C)cc2NC3(C)C)cc1,"inconclusive: 6.31 µM [inhibitor, single point]",–
Cc1ccc(C)c(N2CCN(C(=O)C3CCCN(S(=O)(=O)c4c(C)noc4C)C3)CC2)c1 (stereo not given),–,inactive: -6.06%
CCCn1c(NC(=O)C2COc3ccccc3O2)nc2ccccc21 (stereo not given),–,inactive: -25.3%

Structure (SMILES),Potency,"activity change, negative = inhibition"
Cn1cnc([N+](=O)[O-])c1Oc1cccc2ccccc12,"inconclusive: 0.116 µM [inhibitor, full curve, poor fit]",–
COC(=O)CSc1ncc(C#N)c(N)n1,"inconclusive: 13 µM [activator, partial curve, poor fit]",–
O=C(CCl)NNc1nc(-c2ccccc2)c2cc(Cl)ccc2n1,active: 6.31 µM,–
Cn1c(C(=O)N(Cc2ccccc2)Cc2ccccn2)cc2sccc21,"inconclusive: 18.3 µM [inhibitor, single point]",–
O=c1oc2ccccc2n1CCCCCn1c(=O)oc2ccccc21,"inconclusive: 1.58 µM [inhibitor, partial curve, poor fit]",–
Cc1cccc(-n2c(SCC(=O)NCc3ccco3)nc3ccccc3c2=O)c1,"inconclusive: 23.1 µM [inhibitor, single point]",–
O=C1c2cc([N+](=O)[O-])cc3cc([N+](=O)[O-])cc(c23)C(=O)N1c1ccccn1,"inconclusive: 12.6 µM [inhibitor, partial curve]",–
Cc1ccccc1Sc1ncccc1[N+](=O)[O-],"inconclusive: 2.51 µM [inhibitor, single point]",–
O=C(Nc1nc2ccccc2[nH]1)c1cc(F)cc(F)c1,"inconclusive: 0.501 µM [activator, full curve, poor fit]",–
CN(C)C(=O)/C(=C\c1ccncc1)NC(=O)c1ccccc1,"inconclusive: 10 µM [activator, partial curve, poor fit]",–
CCOC(=O)C1(CC2CC2)CCN(Cc2cc(Cl)c(O)c(OC)c2)CC1,"inconclusive: 25.1 µM [inhibitor, single point]",–
Cc1cc2cc(C)c3nnc(SCC(=O)Nc4ccc(S(=O)(=O)N5CCCCC5C)cc4)n3c2cc1C (stereo not given),"inconclusive: 6.31 µM [inhibitor, single point]",–
CC(=O)c1ccc(N2CCN(C(=O)C3CCCN(S(=O)(=O)c4ccc(Br)s4)C3)CC2)cc1 (stereo not given),–,inactive: -5.02% [at 46.1 µM]
Cc1ccc(-n2c(SCC(=O)N/N=C/c3ccc(C)s3)nnc2-c2ccccc2)cc1,"inconclusive: 35.5 µM [inhibitor, single point]",–
O=C(Nc1nc2c(s1)CCCC2)C1COc2ccccc2O1 (stereo not given),"inconclusive: 6.51 µM [inhibitor, full curve, poor fit]",–
O=C(Nc1ccc(S(=O)(=O)N2CCCC2)cc1)c1ccc(CN2CCc3ccccc3C2)cc1,"inconclusive: 4.47 µM [inhibitor, partial curve]",–
Cc1ccc(OCCn2c(CCCO)nc3ccccc32)cc1,–,inactive: -19.4%
O=C(O)CCn1cc(/C=C2\SC(=S)NC2=O)c(-c2ccccc2)n1,"inconclusive: 1 µM [inhibitor, full curve, poor fit]",–
Cc1ccc(OCCCCN2CCC(C)CC2)cc1,"inconclusive: 35.5 µM [inhibitor, single point]",–
Cc1ccc(CN2CCN(/N=C/c3ccc(C(F)(F)F)cc3)CC2)c(C)c1,–,inactive: -23.1%
COc1ccc(OC)c(NC(=O)CN2c3cccc4cccc(c34)S2(=O)=O)c1,"inconclusive: 22.4 µM [inhibitor, single point]",–
O=C(CCCC(=O)N(c1ccc2c(c1)OCCO2)C(C(=O)NC1CCCCC1)c1ccc(F)cc1)Nc1ccccn1 (stereo not given),"inconclusive: 29.1 µM [inhibitor, single point]",–

# No new results follow: 3 of the compounds above.
Structure (SMILES),Potency,"activity change, negative = inhibition"
Cc1ccc(-n2c(SCC(=O)N/N=C/c3ccc(C)s3)nnc2-c2ccccc2)cc1,"inconclusive: 35.5 µM [inhibitor, single point]",–
O=C(Nc1nc2c(s1)CCCC2)C1COc2ccccc2O1 (stereo not given),"inconclusive: 6.51 µM [inhibitor, full curve, poor fit]",–
O=C(Nc1ccc(S(=O)(=O)N2CCCC2)cc1)c1ccc(CN2CCc3ccccc3C2)cc1,"inconclusive: 4.47 µM [inhibitor, partial curve]",–

# — PubChem BioAssay AID540276 (National Center for Advancing Translational Sciences (NCATS), 2011)
